These are yes or no findings as the source states them, for the method shown. In cells and extracts the contact can be indirect. A yes stands for co-enrichment or nearness to the bait. Other partners may have been found. Sequences can lack the tags named with a protein.
T1: CIA1-Flag (Arabidopsis thaliana) (UniProt O80990)
T1 sequence: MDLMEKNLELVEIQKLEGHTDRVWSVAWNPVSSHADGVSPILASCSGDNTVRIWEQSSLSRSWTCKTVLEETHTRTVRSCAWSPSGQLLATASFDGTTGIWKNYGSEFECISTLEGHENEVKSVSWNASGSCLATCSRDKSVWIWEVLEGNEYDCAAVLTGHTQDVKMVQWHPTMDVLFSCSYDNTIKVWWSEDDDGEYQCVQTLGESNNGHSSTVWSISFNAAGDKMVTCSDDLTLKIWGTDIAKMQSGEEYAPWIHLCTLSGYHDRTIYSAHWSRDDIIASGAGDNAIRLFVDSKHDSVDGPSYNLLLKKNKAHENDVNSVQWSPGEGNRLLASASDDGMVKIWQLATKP

T2: CIA2-Flag (Arabidopsis thaliana) (UniProt Q9C9G6)
T2 sequence: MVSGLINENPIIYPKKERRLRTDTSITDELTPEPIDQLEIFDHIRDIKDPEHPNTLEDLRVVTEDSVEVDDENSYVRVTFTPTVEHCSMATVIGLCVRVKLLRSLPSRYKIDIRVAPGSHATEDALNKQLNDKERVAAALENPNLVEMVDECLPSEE

T3: MMS19-Myc (Arabidopsis thaliana) (UniProt Q0WVF8)
T3 sequence: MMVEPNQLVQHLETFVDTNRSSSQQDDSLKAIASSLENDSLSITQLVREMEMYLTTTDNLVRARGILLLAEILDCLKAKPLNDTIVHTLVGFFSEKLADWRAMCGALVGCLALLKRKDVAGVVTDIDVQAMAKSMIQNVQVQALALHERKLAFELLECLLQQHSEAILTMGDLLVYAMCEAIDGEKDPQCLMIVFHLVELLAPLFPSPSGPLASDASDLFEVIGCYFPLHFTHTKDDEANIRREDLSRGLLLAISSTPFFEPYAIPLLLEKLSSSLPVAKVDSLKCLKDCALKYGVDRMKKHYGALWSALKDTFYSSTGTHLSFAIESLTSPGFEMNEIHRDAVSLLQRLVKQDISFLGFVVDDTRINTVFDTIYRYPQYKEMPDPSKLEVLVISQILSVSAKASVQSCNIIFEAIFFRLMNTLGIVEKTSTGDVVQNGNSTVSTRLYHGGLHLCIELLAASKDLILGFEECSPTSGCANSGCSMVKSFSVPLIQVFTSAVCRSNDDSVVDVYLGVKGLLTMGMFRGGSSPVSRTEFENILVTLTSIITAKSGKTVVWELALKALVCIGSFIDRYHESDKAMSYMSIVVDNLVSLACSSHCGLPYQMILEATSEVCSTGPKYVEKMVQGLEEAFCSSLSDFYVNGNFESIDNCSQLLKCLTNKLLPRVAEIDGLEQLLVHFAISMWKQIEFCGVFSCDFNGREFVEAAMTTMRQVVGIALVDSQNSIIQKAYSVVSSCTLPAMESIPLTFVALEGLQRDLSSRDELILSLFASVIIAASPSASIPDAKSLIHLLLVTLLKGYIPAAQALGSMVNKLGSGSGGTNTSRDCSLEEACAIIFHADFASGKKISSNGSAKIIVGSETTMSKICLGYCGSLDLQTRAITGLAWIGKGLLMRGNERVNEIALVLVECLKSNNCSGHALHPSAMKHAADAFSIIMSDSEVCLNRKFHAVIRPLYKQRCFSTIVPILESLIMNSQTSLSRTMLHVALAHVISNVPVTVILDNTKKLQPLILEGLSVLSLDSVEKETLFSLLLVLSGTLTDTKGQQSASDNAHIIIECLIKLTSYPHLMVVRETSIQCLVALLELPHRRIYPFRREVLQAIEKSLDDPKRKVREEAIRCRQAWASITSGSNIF

B1: AT3G63460 (protein, UniProt Q8L611 1-1104)
chain: MACIKGVGRSASVALAPDAPYMAAGTMAGAVDLSFSSSANLEIFKLDFQSDDRDLPLVGEIPSSERFNRLAWGRNGSGSEEFALGLIAGGLVDGNIDLWNPLSLIGSQPSENALVGHLSVHKGPVRGLEFNAISSNLLASGADDGEICIWDLLKPSEPSHFPLLKGSGSATQGEISFISWNRKVQQILASTSYNGTTVIWDLRKQKPIINFADSVRRRCSVLQWNPNVTTQIMVASDDDSSPTLKLWDMRNIMSPVREFTGHQRGVIAMEWCPSDSSYLLTCAKDNRTICWDTNTAEIVAELPAGNNWNFDVHWYPKIPGVISASSFDGKIGIYNIEGCSRYGVEENNFGTAPLKAPKWYKRPVGASFGFGGKLVSCHARAPAKGTSSILSEVFLHSLVTEQSLVSRTSEFEAAIENGDMTSLRGLCEKKSEETESEEEKETWGLLKIMFEEEGTSRTKLISHLGFTLPVAEKDQAVDGLSSDLNGIRLEDTAADALDLDDSNEAAAFAMDNGEDFFNNFPAKPDTPVSTSAKDFMPSDTDFSTKGEETQEMQEEEEESSDPVFDNAIQRALIVGDYKEAVDQCITANKMADALVIAHVGGTALWESTREKYLKTSSAPYMKVVSAMVNNDLRSLIYTRSHKFWKETLALLCTFAQGEQWTTLCDALASKLMAAGNTLAAVLCYICAGNVDRTVEIWSRSLANERDGRSYAELLQDLMEKTLVLALATGNKKFSASLCKLFESYAEILASQGLLTTAMKYLKVLDSGGLSPELSILRDRISLSAEPETNTTASGNTQPQSTMPYNQEPTQAQPNVLANPYDNQYQQPYTDSYYVPQVSHPPMQQPTMFMPHQAQPAPQPSFTPAPTSNAQPSMRTTFVPSTPPALKNADQYQQPTMSSHSFTGPSNNAYPVPPGPGQYAPSGPSQLGQYPNPKMPQVVAPAAGPIGFTPMATPGVAPRSVQPASPPTQQAAAQAAPAPATPPPTVQTADTSNVPAHQKPVIATLTRLFNETSEALGGARANTTKKREIEDNSRKLGALFVKLNSGDISKNAADKLAQLCQALDNNDFSTALQIQVLLTTSEWDECNFWLATLKRMMVKARQNVR
B2: TRN1 (protein, UniProt Q8H0U4 1-891)
chain: MAATAVVWQPRDDGLAEICSLLEQQISPSSVVDKSQIWKQLQHFSQFPDFNNYLVFILVRAEGKSVEVRQAAGLLLKNNLRGAYPSMTQENQKYIKSELLPCLGAADRNIRTTVGTIISVIVNIEGVSGWHELLPALVTCLDSNDLNHMDGAMDALSKICEDIPHVLDTEVPGLAERPINIFLPRLLQFFQSPHASLRKLALGSVNQYIIIMPAALYNSLDKYLQGLFVLANDPVPEVRKLVCAAFVHLTEVLPSSIEPHLRNVMEYMLQVNRDPDEEVSLEACEFWSAYCDAQLPPENLKEFLPRLIPVLLENMAYADDDESLLDAEEDESQPDRDQDLKPRFHTSRLHGSEDFDDDDDDSFNVWNLRKCSAAAIDVLSNVFGDEILPALMPLIQKNLSASGDEAWKQREAAVLALGAIAEGCMNGLYPHLSEIVAFLLPLLDDKFPLIRSISCWTLSRFGKYLIQESGNPKGYEQFEKVLMGLLRRLLDTNKRVQEAACSAFATVEEDAAEELVPHLGVILQHLMCAFGKYQRRNLRIVYDAIGTLADSVREELNKPAYLEILMPPLVAKWQQLSNSDKDLFPLLECFTSISQALGVGFAPFAQPVFQRCMDIIQLQQLAKVNPASAGAQYDREFIVCSLDLLSGLAEGLGSGIESLVQQSNLRDLLLNCCIDEAADVRQSAFALMGDLARVFPVYLQPRLLDFLEIASQQLSANLNRENLSVANNACWAIGELAVKVRQEVSPIVAKVVSSLGLILQHGEGVNKALVENSAITLGRLAWIRPDLVAPHMDHFMKPWCMALSMVRDDIEKEDAFRGLCAVVKVNPSGGVSSLVFICQAIASWHEIRSEDVQTEVSQVLNGYKHMLGNSWAECLSALDPPVKERLARYQV
B3: MOS14 (protein, UniProt Q8GUL2 1-958)
chain: MEHQNAVKEALNALYHHPDDTVRVHADRWLQNFQGTLDAWQVADNLLHDSSSNLETLIFCSQTLRSKVQRDFEELPPGAFQKLRQSLTTLLKKFHKGPPKVRTQISIAVAALAVHVPAADWGDGGIISWLRDEMHMHPEYVPGFLELLTVLPEETFNYKIAARPDRRRQFEKELTSQMEAALSILSACLKISELKEQVLEAFASWLRLRHGIPGTVLACHPLVHAALSSLNCDPLSEASVNVISELIHHTASPSSGGISAQTPLIQVIVPQILSLQAHLRDSSKDEEDVKAIGRLFADVGDSYVELIATGSDEPMVIVHALLEVTAHPEFDIASMTFNFWHSLQLMLTKRESYSSLGSEASIEVERNRRLHIFQPAYQSLVSLVGFRVQYPEDYQGLSYEDLKEFKQTRYAVADVLIDAALILGGDTTLKILYMKLLEANAQTGNNFQDWRPAEAILFCIWAISNYVSVVEAEVMPQVMALLQNLPQQAQLLQTACLLVGAYSKWLNAAPASVSILPSIIRILMSGMGTSEDCAAAAALAFRHTCDDCRKNLCGYFEDLFNIYCMAINGGGGYKVSAEDSLNLVEALGMVVTELPLDQAKGALEKLCFSAASPLEEAAKEDLEKKHARELTVHIDRFAFLFRYVNHPEAVAAEINKHWAIFRVIFDARPWDMRTMESLCRACKYAVRTSGRYIIDTIGEMLEKIQFHYQQHHQPCFLYLSSEVIKIFGSDPSCAVYLKNLIETLFAHTTCLMTSIKEVTARPDIADDCFLLASRCLRYCPHLFIPSPIFPALVNCAMIGITVQHREACHSILTFLTDIFDLEKSVNEEQFVRIRDNIIIPRGATITRILIASLAGALPSSRLDTVTYSLLALTRTYRLQAVSWAKESVSLIPRTALTETESTKFLQALSDIAYGADVNSLIGQVEELSDVCRRNRTVQELVQAALKPLELNLVTAPVS
B4: AT3G11830 (protein, UniProt Q9SF16 1-557)
chain: MASMMQPQIILLKEGTDTSQGKAQLVSNINACTAVGDVVRTTLGPRGMDKLIHDDKGSVTISNDGATIMKLLDIVHPAAKILVDIAKSQDSEVGDGTTTVVLLAAEFLKEAKPFIEDGVHAQNLIRSYRTASTLAIAKVKELAVSIEGKSVEEKKGLLAKCAATTLSSKLIGGEKEFFATMVVDAVMAIGNDDRLNLIGIKKVPGGNMRDSFLVDGVAFKKTFSYAGFEQQPKKFLNPKILLLNIELELKSEKENAEIRLSDPSQYQSIVDAEWNIIYDKLDKCVESGAKVVLSRLAIGDLATQYFADRDIFCAGRVAEEDLNRVAAAAGGTVQTSVNNIIDEVLGTCEIFEEKQVGGERFNIFSGCPSGRTATIVLRGGADQFIEEAERSLHDAIMIVRRAVKNSTVVPGGGAIDMEISKYLRQHSRTIAGKSQLFINSYAKALEVIPRQLCDNAGFDATDVLNKLRQKHAMQSGEGASYGVDINTGGIADSFANFVWEPAVVKINAINAATEAACLILSVDETVKNPKSESAQGDAAGAMGRGRGGGRGRGMRRR

The binders below were run against T1, CIA1-Flag (Arabidopsis thaliana) (assay: affinity purification with mass spectrometry; anti-Myc (MMS19-Myc) or anti-Flag (CIA1-Flag, CIA2-Flag) antibody-conjugated beads on extracts of flowers or seedlings of transgenic plants; CIA1-Flag and CIA2-Flag in the wild-type background, also done in the mms19 mutant background; lysis buffer 50 mM Tris-HCl pH 7.6, 150 mM NaCl, 5 mM MgCl2, 10% glycerol, 0.1% NP-40, 0.5 mM DTT; 4 °C; wild-type plants as control).

binding	Binder
binds	B1
binds	B2
binds	B3
binds	B4

Each binder was assayed against T2, CIA2-Flag (Arabidopsis thaliana) in the same assay as above.

binding	Binder
binds	B1
binds	B2
binds	B3
binds	B4

The binders below were run against T3, MMS19-Myc (Arabidopsis thaliana) in the same assay as above.

binding	Binder
binds	B1
binds	B2

— paper PMC4459967
